The list shows a part of the results. The data scatter; read single values as rough.
Compound: ClCC(=O)N[C@@H]1CCCc2ccccc12
Experiment: log2 mean competition ratio of IA-DTB cysteine labelling (DMSO/compound) (log2 ratio); higher = stronger cysteine engagement by compound
Settings: 50 µM; treatment time: 4 h; cell line lysate: HEK293T
Method: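 IA-DTB competitive cysteine chemoproteomics in HEK293T RIPA lysate. Lysates were treated with compound 29 or 30 at 50 or 200 µM for 4 h, then IA-DTB (500 µM, 1 h), trypsin-digested, NeutrAvidin-enriched and analysed by diaPASEF. Competition ratio = intensity DMSO / intensity compound (n=4 treated, n=64 DMSO); binding: mean log2 CR ≥ 1 and p ≤ 0.05 plus QC filters. Target is the cysteine site.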

Sequences of proteins named here, by UniProt entry; tags and fusion partners are left off. A change or cut given only in a name is not applied to a line headed by its entry. Residues count along the entry.
UniProt Q9Y4F3: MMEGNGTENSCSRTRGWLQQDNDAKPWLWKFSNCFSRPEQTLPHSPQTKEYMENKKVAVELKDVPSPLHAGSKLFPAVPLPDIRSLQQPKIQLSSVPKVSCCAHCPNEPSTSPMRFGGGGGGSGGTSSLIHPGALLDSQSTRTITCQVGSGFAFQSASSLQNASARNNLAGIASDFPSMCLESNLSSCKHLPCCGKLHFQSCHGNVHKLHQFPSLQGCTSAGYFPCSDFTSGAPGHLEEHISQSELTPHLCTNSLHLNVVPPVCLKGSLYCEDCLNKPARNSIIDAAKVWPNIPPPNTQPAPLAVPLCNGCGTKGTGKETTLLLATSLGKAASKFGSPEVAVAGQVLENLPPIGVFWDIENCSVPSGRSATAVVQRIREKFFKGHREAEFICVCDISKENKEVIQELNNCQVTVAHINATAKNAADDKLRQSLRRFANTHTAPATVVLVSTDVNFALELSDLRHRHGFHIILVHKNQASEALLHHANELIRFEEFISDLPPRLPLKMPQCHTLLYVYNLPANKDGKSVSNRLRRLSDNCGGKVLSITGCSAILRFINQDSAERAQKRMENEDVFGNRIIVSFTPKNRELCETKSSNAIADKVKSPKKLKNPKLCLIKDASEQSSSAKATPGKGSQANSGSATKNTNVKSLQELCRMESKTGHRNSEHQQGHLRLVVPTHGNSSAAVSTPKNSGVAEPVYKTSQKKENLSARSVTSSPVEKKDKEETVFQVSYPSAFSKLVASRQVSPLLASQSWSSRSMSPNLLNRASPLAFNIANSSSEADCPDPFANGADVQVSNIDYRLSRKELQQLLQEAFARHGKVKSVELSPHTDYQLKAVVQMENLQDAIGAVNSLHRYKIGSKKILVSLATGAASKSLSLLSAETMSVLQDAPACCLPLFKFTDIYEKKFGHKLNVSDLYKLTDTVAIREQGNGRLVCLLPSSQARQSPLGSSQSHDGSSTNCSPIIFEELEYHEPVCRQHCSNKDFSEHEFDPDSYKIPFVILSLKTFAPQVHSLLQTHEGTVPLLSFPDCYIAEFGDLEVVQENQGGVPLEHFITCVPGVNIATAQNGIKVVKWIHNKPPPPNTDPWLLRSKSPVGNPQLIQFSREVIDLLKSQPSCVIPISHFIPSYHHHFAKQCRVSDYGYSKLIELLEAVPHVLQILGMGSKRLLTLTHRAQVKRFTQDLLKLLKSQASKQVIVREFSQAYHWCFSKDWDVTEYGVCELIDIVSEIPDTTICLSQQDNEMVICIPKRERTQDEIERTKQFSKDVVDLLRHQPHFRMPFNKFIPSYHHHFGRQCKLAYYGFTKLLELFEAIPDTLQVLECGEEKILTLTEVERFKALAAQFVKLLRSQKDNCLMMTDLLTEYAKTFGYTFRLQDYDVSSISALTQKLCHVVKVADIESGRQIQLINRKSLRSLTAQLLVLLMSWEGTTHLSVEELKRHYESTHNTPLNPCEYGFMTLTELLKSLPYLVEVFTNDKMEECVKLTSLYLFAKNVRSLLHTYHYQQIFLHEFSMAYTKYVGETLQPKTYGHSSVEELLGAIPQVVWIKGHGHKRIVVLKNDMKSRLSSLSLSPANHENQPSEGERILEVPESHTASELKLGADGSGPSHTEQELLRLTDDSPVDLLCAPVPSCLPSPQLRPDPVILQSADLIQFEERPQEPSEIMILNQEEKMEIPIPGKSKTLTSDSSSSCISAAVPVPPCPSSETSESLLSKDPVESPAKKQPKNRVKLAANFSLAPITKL
UniProt Q9NXL9, 866-886: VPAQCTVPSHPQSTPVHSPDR
UniProt Q9Y6D9: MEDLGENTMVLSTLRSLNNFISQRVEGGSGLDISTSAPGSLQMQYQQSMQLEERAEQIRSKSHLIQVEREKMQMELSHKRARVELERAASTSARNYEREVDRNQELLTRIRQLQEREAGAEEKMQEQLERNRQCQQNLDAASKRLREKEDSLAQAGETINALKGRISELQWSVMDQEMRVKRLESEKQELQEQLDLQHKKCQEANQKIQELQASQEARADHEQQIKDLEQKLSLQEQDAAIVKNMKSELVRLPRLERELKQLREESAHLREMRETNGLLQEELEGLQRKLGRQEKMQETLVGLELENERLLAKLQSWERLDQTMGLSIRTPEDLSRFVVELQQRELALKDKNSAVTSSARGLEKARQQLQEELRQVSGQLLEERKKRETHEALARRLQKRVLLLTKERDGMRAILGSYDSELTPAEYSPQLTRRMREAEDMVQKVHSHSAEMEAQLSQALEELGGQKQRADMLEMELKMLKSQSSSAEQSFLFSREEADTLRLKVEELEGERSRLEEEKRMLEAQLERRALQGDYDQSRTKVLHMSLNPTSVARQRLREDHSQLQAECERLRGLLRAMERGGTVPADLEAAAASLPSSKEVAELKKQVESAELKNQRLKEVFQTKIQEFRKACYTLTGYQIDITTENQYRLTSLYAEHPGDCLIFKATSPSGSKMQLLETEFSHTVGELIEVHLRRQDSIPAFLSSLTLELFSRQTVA
UniProt O95232: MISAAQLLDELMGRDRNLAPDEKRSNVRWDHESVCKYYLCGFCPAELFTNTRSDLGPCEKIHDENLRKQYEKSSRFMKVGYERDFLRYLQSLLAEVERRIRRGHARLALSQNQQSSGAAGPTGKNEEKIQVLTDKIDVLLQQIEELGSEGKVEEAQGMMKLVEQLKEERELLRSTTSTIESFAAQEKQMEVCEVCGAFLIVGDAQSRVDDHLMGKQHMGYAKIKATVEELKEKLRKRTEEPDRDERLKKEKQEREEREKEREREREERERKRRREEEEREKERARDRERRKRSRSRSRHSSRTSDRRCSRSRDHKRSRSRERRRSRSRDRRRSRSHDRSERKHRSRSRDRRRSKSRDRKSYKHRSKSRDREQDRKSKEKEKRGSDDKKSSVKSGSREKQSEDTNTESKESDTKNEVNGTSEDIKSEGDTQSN
UniProt P33993: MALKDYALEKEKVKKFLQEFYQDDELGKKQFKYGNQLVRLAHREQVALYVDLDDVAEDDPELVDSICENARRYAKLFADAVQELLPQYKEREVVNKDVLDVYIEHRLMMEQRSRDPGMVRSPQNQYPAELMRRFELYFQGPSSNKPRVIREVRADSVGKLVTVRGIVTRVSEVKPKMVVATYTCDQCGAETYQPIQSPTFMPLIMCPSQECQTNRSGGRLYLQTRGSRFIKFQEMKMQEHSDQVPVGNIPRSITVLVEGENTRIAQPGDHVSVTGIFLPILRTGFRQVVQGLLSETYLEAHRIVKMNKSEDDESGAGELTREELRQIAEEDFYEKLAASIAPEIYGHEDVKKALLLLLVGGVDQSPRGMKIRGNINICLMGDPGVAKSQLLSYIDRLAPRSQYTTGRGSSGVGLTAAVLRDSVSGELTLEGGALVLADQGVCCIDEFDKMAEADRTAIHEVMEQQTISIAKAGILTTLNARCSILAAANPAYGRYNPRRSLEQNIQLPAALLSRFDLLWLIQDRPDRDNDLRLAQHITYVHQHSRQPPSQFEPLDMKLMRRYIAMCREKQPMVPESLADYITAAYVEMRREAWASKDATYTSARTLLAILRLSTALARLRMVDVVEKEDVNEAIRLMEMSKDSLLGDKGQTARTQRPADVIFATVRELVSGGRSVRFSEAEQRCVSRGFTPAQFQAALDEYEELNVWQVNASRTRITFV
UniProt Q86V48: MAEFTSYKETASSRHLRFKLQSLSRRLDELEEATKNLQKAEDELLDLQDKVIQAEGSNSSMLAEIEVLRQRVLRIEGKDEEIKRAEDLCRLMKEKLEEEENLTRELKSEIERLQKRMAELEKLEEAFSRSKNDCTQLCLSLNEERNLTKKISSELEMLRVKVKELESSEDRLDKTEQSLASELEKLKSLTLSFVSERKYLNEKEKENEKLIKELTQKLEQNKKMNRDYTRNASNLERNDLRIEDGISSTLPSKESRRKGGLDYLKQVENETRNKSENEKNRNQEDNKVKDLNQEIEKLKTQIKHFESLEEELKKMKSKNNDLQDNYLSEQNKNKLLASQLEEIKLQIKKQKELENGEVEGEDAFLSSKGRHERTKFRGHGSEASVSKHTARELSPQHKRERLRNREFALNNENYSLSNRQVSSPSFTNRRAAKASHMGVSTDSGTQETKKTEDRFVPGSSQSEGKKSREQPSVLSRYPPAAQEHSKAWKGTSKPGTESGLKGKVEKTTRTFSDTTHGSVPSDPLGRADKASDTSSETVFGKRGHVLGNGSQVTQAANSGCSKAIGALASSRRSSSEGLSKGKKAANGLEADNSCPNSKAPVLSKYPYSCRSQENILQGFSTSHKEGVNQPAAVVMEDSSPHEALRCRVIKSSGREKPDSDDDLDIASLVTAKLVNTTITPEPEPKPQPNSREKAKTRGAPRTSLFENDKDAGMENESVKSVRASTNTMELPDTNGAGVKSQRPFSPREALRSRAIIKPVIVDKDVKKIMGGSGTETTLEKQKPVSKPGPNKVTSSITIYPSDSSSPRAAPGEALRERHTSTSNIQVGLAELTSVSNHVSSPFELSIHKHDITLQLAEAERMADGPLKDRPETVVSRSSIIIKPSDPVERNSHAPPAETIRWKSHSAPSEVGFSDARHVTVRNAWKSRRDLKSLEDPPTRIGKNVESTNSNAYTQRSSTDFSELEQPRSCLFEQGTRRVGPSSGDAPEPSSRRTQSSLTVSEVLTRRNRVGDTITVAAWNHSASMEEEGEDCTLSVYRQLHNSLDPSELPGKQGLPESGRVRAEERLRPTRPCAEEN
UniProt O14733, 113-136: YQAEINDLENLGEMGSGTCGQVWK
UniProt Q3MHD2: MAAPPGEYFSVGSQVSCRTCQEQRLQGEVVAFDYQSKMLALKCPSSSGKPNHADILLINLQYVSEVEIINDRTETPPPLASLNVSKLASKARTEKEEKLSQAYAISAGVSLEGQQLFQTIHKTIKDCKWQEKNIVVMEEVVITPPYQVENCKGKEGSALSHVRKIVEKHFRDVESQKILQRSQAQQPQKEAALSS
UniProt O95382: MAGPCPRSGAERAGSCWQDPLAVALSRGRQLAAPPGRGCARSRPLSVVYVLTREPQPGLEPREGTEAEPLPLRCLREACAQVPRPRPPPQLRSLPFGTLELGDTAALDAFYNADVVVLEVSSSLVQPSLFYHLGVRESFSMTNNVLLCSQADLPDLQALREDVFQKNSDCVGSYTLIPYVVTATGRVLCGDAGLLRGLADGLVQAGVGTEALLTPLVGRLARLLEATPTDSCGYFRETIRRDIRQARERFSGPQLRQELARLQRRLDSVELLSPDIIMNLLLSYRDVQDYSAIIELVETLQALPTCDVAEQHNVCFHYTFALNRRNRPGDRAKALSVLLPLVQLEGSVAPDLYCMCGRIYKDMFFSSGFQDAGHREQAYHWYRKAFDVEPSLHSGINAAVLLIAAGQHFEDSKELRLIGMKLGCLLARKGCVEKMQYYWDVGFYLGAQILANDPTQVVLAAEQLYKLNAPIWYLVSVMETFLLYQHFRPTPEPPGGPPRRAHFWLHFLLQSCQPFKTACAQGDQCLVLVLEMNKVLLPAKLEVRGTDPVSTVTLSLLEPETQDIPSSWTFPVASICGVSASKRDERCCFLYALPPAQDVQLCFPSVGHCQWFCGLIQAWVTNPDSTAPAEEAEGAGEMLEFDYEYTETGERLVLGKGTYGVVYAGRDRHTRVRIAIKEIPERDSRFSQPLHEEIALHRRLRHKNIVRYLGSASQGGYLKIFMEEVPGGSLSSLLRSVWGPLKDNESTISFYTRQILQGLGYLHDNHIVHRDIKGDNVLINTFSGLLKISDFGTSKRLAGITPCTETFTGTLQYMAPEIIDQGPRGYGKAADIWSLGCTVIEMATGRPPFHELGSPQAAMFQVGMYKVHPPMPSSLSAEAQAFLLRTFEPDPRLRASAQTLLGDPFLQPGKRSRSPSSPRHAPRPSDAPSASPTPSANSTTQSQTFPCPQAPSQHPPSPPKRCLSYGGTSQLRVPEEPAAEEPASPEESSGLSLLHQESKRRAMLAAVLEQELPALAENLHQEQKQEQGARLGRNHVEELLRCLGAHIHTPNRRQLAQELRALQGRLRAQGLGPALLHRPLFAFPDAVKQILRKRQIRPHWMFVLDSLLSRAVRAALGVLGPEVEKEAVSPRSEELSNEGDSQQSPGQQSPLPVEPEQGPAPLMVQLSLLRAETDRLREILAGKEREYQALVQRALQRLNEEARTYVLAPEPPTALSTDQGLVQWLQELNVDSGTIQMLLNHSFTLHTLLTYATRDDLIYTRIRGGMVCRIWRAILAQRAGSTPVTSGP
UniProt Q9BQ69: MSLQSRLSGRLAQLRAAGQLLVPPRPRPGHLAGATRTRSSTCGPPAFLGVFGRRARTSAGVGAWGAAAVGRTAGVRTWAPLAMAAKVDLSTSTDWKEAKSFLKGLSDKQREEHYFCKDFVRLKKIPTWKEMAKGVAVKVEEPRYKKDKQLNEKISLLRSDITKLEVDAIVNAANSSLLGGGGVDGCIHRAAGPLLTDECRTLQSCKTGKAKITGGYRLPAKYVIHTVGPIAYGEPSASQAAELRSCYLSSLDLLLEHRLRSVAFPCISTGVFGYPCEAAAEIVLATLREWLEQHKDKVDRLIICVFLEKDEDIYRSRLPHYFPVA

Row | Target | log2 mean competition ratio
1 | MARF1 C539 (UniProt Q9Y4F3) | -0.000158
2 | LRRC59 C48 (UniProt Q96AG4) | -0.031
3 | MATK C53 (UniProt P42679) | 0.061
4 | MCM9 C870 (UniProt Q9NXL9) | 0.369
5 | MAD1L1 C134 (UniProt Q9Y6D9) | -0.437
6 | MAP2K2 C384 (UniProt P36507) | -0.0626
7 | MCMBP C249 (UniProt Q9BTE3) | 0.0774
8 | LUC7L3 C58 (UniProt O95232) | -0.0704
9 | MAP7D1 C382 (UniProt Q3KQU3) | -0.228
10 | LRRC1 C224 | 0.0874
11 | MAPKAPK3 C379 (UniProt Q16644) | -0.253
12 | MCM7 C378 (UniProt P33993) | -0.123
13 | MCM9 C529 (UniProt Q9NXL9) | 0.331
14 | MARS1 C38 | 0.091
15 | MAST2 C686 (UniProt Q6P0Q8) | -0.0767
16 | MAP3K4 C1484 (UniProt Q9Y6R4) | -0.0031
17 | MARF1 C654 (UniProt Q9Y4F3) | -0.336
18 | LUZP1 C1072 (UniProt Q86V48) | -0.189
19 | MAPK3 C82 | 0.00733

Row | Target | log2 mean competition ratio
20 | MAP2K7 C280 (UniProt O14733) | 0.353
21 | LRRC41 C123 (UniProt Q15345) | 0.265
22 | MBOAT7 C280 (UniProt Q96N66) | -0.0596
23 | MCM2 C584 (UniProt P49736) | -0.174
24 | MAP2K1 C341 (UniProt Q02750) | 0.017
25 | MAZ C371 (UniProt P56270) | -0.239
26 | MCTS2P C14, A0A3B3IRV3 | 0.157
27 | LSM12 C17 (UniProt Q3MHD2) | 0.428
28 | MAP3K6 C962 (UniProt O95382) | 0.424
29 | MAP3K15 C1227 (UniProt Q6ZN16) | 0.372
30 | MCM3 C148 (UniProt P25205) | 0.202
31 | MANF C151 (UniProt P55145) | -0.069
32 | MAP3K21 C859 | -0.143
33 | MBTD1 C185 (UniProt Q05BQ5) | -0.188
34 | LTN1 C91 (UniProt O94822) | 0.0625
35 | MAD1L1 C568 (UniProt Q9Y6D9) | -0.0551
36 | MAP7D2 C163 | 0.229
37 | MACROD1 C199 (UniProt Q9BQ69) | -0.0189
38 | MAP2K7 C131 (UniProt O14733) | 0.0266

Same assay, conditions: 200 µM; treatment time: 4 h; cell line lysate: HEK293T

Row | Target | log2 mean competition ratio
39 | MARF1 C539 (UniProt Q9Y4F3) | 0.188
40 | LRRC59 C48 (UniProt Q96AG4) | 0.024
41 | MATK C53 (UniProt P42679) | -0.189
42 | MCM9 C870 (UniProt Q9NXL9) | -0.09
43 | MAD1L1 C134 (UniProt Q9Y6D9) | 0.0522
44 | MAP2K2 C384 (UniProt P36507) | 0.074
45 | MCMBP C249 (UniProt Q9BTE3) | -0.304
46 | LUC7L3 C58 (UniProt O95232) | -0.0334
47 | MAP7D1 C382 (UniProt Q3KQU3) | -0.163
48 | LRRC1 C224 | -0.32
49 | MAPKAPK3 C379 (UniProt Q16644) | 0.0409
50 | MCM7 C378 (UniProt P33993) | -0.188
51 | MCM9 C529 (UniProt Q9NXL9) | 0.416
52 | MARS1 C38 | 0.363
53 | MAST2 C686 (UniProt Q6P0Q8) | -0.612
54 | MAP3K4 C1484 (UniProt Q9Y6R4) | -0.183
55 | MARF1 C654 (UniProt Q9Y4F3) | 0.0908
56 | LUZP1 C1072 (UniProt Q86V48) | 0.306
57 | MAPK3 C82 | 0.0172

Row | Target | log2 mean competition ratio
58 | MAP2K7 C280 (UniProt O14733) | 0.242
59 | LRRC41 C123 (UniProt Q15345) | 0.647
60 | MBOAT7 C280 (UniProt Q96N66) | -0.247
61 | MCM2 C584 (UniProt P49736) | -0.305
62 | MAP2K1 C341 (UniProt Q02750) | 0.453
63 | MAZ C371 (UniProt P56270) | 0.211
64 | MCTS2P C14, A0A3B3IRV3 | -0.273
65 | LSM12 C17 (UniProt Q3MHD2) | 0.399
66 | MAP3K6 C962 (UniProt O95382) | 0.292
67 | MAP3K15 C1227 (UniProt Q6ZN16) | -0.219
68 | MCM3 C148 (UniProt P25205) | -0.189
69 | MANF C151 (UniProt P55145) | -0.00874
70 | MAP3K21 C859 | 0.841
71 | MBTD1 C185 (UniProt Q05BQ5) | -0.166
72 | LTN1 C91 (UniProt O94822) | 0.182
73 | MAD1L1 C568 (UniProt Q9Y6D9) | 0.848
74 | MAP7D2 C163 | 0.192
75 | MACROD1 C199 (UniProt Q9BQ69) | 0.0943
76 | MAP2K7 C131 (UniProt O14733) | -0.0339

From the supplement of paper PMC11732987, “Enantioselective OTUD7B fragment discovery through chemoproteomics screening and high-throughput optimisation” (Communications Chemistry, 2025)
